# Results as given in the supplement of paper PMC10338343.
# ± gives the standard deviation. Only a part is listed here, and it is no random draw. The uncertainty is large for many entries. Some of the results follow.
# Legend:
# [1] = system: MILI (PIWIL2) piRISC loaded with L1MC piRNA (26 nt); assay: pre-steady-state target cleavage rate (min^-1); higher = faster piRNA-guided slicing of the target; details: guide: L1MC piRNA 5'p-UAACUAAAUACUAUGCAAGCUGUAGG
# Outline: (§1)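 With or without 500 nM GTSF1 partner protein, 1 nM active affinity-purified piRISC carrying one synthetic guide was mixed with 0.1 nM transcribed, DNA-blocked target RNA library in HEPES–potassium acetate buffer at 33 °C for 0–8 or 0–960 min. Uncleaved targets were sequenced and normalised to depth and to weakly complementary targets, three trials were pooled, and k3 was capped at 0.0001 min^-1. The pre-steady-state cleavage rate came from a burst-and-steady-state fit.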
# [2] = system: EfPiwi piRISC loaded with L1MC piRNA (26 nt); assay: pre-steady-state target cleavage rate (min^-1); guide: L1MC piRNA 5'p-UAACUAAAUACUAUGCAAGCUGUAGG; MIWI and MILI are mouse PIWI proteins and EfPiwi is from a freshwater sponge; tags in brackets are library labels; higher = faster piRNA-guided slicing of the target
# Outline: as §1
# [3] = auxiliary factor: none (no GTSF1)
# [4] = auxiliary factor: 500 nM Ephydatia muelleri Gtsf1
# [5] = auxiliary factor: none (no Gtsf1)
# [6] = auxiliary factor: 500 nM mouse GTSF1
Sequence,"pre-steady-state target cleavage rate [1, 3]","pre-steady-state target cleavage rate [2, 4]","pre-steady-state target cleavage rate [2, 5]","pre-steady-state target cleavage rate [1, 6]"
UCCUGCUACAGCUUGCAUAGUAUUUAAUUA,0.00244 ± 0.0044,0.00612 ± 0.0025,0.000516 ± 0.018,
UCCUGGAUCAGGUUGCAUAGUAUUUACUUA,0.00257 ± 0.0029,0.000855 ± 0.0047,0.000212 ± 0.045,
UCCUGGAACACCUUGCAUAGUAUUUAGAUA,0.00259 ± 0.003,0.0026 ± 0.0026,0.000475 ± 0.013,
UCCUGGAUCAGCUUGCAUAUUAUUUAGUUA,0.00283 ± 0.0031,0.0367 ± 0.011,0.00536 ± 0.0048,
UCCUGGAUGACCUUGCAUAGAAUUUAGUUA,0.000413 ± 0.0079,0.000357 ± 0.023,0.000612 ± 0.014,
UCCUGGAUCACCUUGCAUAGUAUUUUGUUA,0.00149 ± 0.005,0.00229 ± 0.0037,0.000607 ± 0.014,
UCCUGCUACAGCUUGCAUACUAUUUAGUAA,0.00108 ± 0.0065,0.00476 ± 0.0026,0.000519 ± 0.014,
UCCUGCUACACCUUGCAUAGAAUUUAGUUA,0.000785 ± 0.0086,0.00207 ± 0.0023,0.000406 ± 0.016,
UCCUGCUAGAGCUUGCAUACUAUUUAGUUA,0.00202 ± 0.0045,0.00515 ± 0.0018,0.000777 ± 0.0074,
UCCUGCUACAGCUAGCAUAGUAUUUAGUUA,,0.0287 ± 0.0081,0.000986 ± 0.006,0.354 ± 0.027
UCCUCCUUCAGCUUCCAUAGUAUUUAGUUA,0.00105 ± 0.0056,0.00448 ± 0.0019,0.000337 ± 0.012,
UCCUCCUACAGCUUGCAUAGAAUUUACUUA,0.000889 ± 0.005,0.00178 ± 0.0026,0.000188 ± 0.022,
UCCUGGUACAGCUUGCAUAGUAUUAAGAUA,0.00177 ± 0.0044,0.0058 ± 0.0028,0.000706 ± 0.014,
UCCUGGAUGAGCUUGCAUAGUUUUUAGUAA,0.00256 ± 0.003,0.00121 ± 0.0053,0.000536 ± 0.019,
UCCUGGUUCAGCUUGCAUAGUAUUUACAAA,0.0013 ± 0.0051,0.00195 ± 0.0034,0.000747 ± 0.01,
UCCUGGAACAGCUUGCAUAGUAUAUACUUA,0.00146 ± 0.0046,0.000524 ± 0.011,0.000311 ± 0.029,
UCCUGGAUCCGCUUGCAUAGUAUUUAGUUA,,0.146 ± 0.029,0.000282 ± 0.036,0.297 ± 0.019
UCCUGGAUGUGCUUGCAUAGUAUUAAGUAA,0.00121 ± 0.0058,0.00114 ± 0.0055,0.000537 ± 0.018,
UCCUCCAACAGCUUGCAUAGUAUUUACUUA,0.00287 ± 0.0029,0.00475 ± 0.0037,0.000443 ± 0.011,
UCCUGGAUGUGCUUGCAUAGUAUUUACGUUA,0.00393 ± 0.0044,0.00702 ± 0.0042,0.000877 ± 0.01,
UCCUGCUUGAGCUUGCAUAGUAUUUACAAA,0.00136 ± 0.0045,0.00279 ± 0.0023,0.000223 ± 0.02,
UCCUGGUACAGCUUGCAAAGUAUUUAGAAA,0.00103 ± 0.0056,0.00656 ± 0.0038,0.000181 ± 0.023,
UCCUCCUACAGCUUGCAAAGUAUUUAGAUA,0.00117 ± 0.0042,0.00419 ± 0.0024,0.000433 ± 0.01,
UCCUGCUACAGCUUGCAUAGUAUUUAGCUA,0.000849 ± 0.0064,0.00339 ± 0.0014,< 0.0001,
UCCUGGAUGACCUUGCAUAGUAUUUAGUAA,0.00317 ± 0.0036,0.00129 ± 0.0046,0.000657 ± 0.015,
UCCUGGAUGAGCUUGCAUAGUAUUUACAUA,0.00121 ± 0.0049,0.00323 ± 0.0028,0.00036 ± 0.024,

# An excerpt of these results, tab-delimited:
Sequence	pre-steady-state target cleavage rate [1, 3]	pre-steady-state target cleavage rate [2, 4]	pre-steady-state target cleavage rate [2, 5]	pre-steady-state target cleavage rate [1, 6]
UCCUGGAUCAGGUUGCAUAGUAUUUACUUA	0.00257 ± 0.0029	0.000855 ± 0.0047	0.000212 ± 0.045	
UCCUGGAUCCGCUUGCAUAGUAUUUAGUUA		0.146 ± 0.029	0.000282 ± 0.036	0.297 ± 0.019
